Laboratory results from PubChem BioAssay AID248 (DTP/NCI, 2004).
The list is a part of this screen's results and no random one: it is rich in T/C values a quarter to a half above the control, in often repeated tests (any T/C) and in doses without a T/C. Other doses and runs of a compound stand elsewhere. T/C: endpoint of the treated group in % of that of the vehicle group. Some doses have a count of surviving animals in place of a T/C: the source holds a T/C of zero for them, seemingly a mark for toxic or unscored doses. Some doses without a T/C left all or most animals alive at the check, yet need not have been tolerated: survival well below the control is almost never listed, so the zero probably covers shortened survival too. Survivors were counted at the toxicity check, usually on the fifth day, unless a day is given; later deaths do not show. Schedules are NCI's codes, read here as Q, the interval in days (D) or hours (H), X, the number of doses. Some doses were run more than once; the results are listed from low to high. Some schedule codes hold Z or #, which are not explained here. Some structures stand for samples that the source files as different forms (salt, stereo form or complex); doses refer to the form tested. For survival time, the PubChem record calls one and a half times the control and up active, and a quarter to a half above the control has no call in these data; cut-offs in other NCI protocols can differ. Some T/C values are followed by the survivors on the day toxicity was checked, most often the fifth; where none is given, no animal had died by that day.

System: L1210 leukemia ip in BDF1 mice, survival T/C
Assay: NCI In Vivo Anticancer Drug Screen. Data for tumor model L1210 Leukemia (intraperitoneal) in B6D2F1 (BDF1) mice
Settings: T/C endpoint: mean survival time, higher T/C = longer survival
[1] = dose: 400.0 mg/kg/injection, schedule: Q01DX001 (ip), vehicle: saline
[2] = dose: 300.0 mg/kg/injection, schedule: Q01DX001 (ip), vehicle: saline

## CCOc1cc(/C=N\Nc2nncn2N)ccc1N(CCCl)CCCl
dose: 4.0 mg/kg/injection, schedule: Q01DX015 (ip), vehicle: carboxymethylcellulose (CMC)
  T/C: 134 % of control [5 of 6 alive]
dose: 9.0 mg/kg/injection, schedule: Q01DX001 (ip), vehicle: carboxymethylcellulose (CMC)
  T/C: 129 % of control
dose: 10.0 mg/kg/injection, schedule: Q01DX001 (ip), vehicle: carboxymethylcellulose (CMC)
  T/C: 130 % of control
dose: 13.0 mg/kg/injection, schedule: Q01DX001 (ip), vehicle: carboxymethylcellulose (CMC)
  T/C: 138 % of control
dose: 20.0 mg/kg/injection, schedule: Q01DX001 (ip), vehicle: carboxymethylcellulose (CMC)
  T/C: 145 % of control
dose: 20.0 mg/kg/injection, schedule: Q01DX015 (ip), vehicle: carboxymethylcellulose (CMC)
  survivor count: 2 of 6
dose: 30.0 mg/kg/injection, schedule: Q01DX001 (ip), vehicle: carboxymethylcellulose (CMC)
  survivor count: 1 of 4
dose: 40.0 mg/kg/injection, schedule: Q01DX001 (ip), vehicle: carboxymethylcellulose (CMC)
  survivor count: 2 of 4
dose: 50.0 mg/kg/injection, schedule: Q01DX001 (ip), vehicle: carboxymethylcellulose (CMC)
  survivor count: 0 of 4
dose: 80.0 mg/kg/injection, schedule: Q01DX001 (ip), vehicle: carboxymethylcellulose (CMC)
  survivor count: 0 of 4
dose: 100.0 mg/kg/injection, schedule: Q01DX001 (ip), vehicle: carboxymethylcellulose (CMC)
  survivor count: 0 of 4
dose: 200.0 mg/kg/injection, schedule: Q01DX001 (ip), vehicle: carboxymethylcellulose (CMC)
  survivor count: 0 of 4
dose: 400.0 mg/kg/injection, schedule: Q01DX001 (ip), vehicle: carboxymethylcellulose (CMC)
  survivor count: 0 of 4

## Nc1nc2ncc(CNc3cnc(C(=O)NC(CCC(=O)O)C(=O)O)nc3)nc2c(=O)[nH]1 (centres undefined)
dose: 75.0 mg/kg/injection, schedule: Q01DX009 (ip), vehicle: alkali diluted with saline
  T/C: 128 % of control
dose: 400.0 mg/kg/injection, schedule: Q01DX001 (ip), vehicle: saline with Tween-80
  survivor count: 0 of 6

## O=C1CCCC2C1C1(O)CCC2(O)c2cccc(O)c21 (centres undefined)
dose: 200.0 mg/kg/injection, schedule: Q01DX009 (ip), vehicle: saline
  survivor count: 0 of 6
[1]
  survivor count: 0 of 6

## Cc1ccc([P+](Cc2ccc(Cl)cc2Cl)(c2ccc(C)cc2)c2ccc(C)cc2)cc1
dose: 25.0 mg/kg/injection, schedule: Q04DX003 (ip), vehicle: Klucel (hydroxypropylcellulose) (HPC)
  survivor count: 1 of 6 and 6 of 6
dose: 50.0 mg/kg/injection, schedule: Q04DX003 (ip), vehicle: Klucel (hydroxypropylcellulose) (HPC)
  survivor count: 0 of 6
dose: 100.0 mg/kg/injection, schedule: Q04DX003 (ip), vehicle: Klucel (hydroxypropylcellulose) (HPC)
  survivor count: 0 of 6
dose: 200.0 mg/kg/injection, schedule: Q04DX003 (ip), vehicle: Klucel (hydroxypropylcellulose) (HPC)
  survivor count: 0 of 6
dose: 400.0 mg/kg/injection, schedule: Q04DX003 (ip), vehicle: Klucel (hydroxypropylcellulose) (HPC)
  survivor count: 0 of 6

## O=C1NC(=O)N(c2ccccc2)C(=O)/C1=C/c1ccccc1
dose: 400.0 mg/kg/injection, schedule: Q01DX001 (ip), vehicle: Klucel (hydroxypropylcellulose) (HPC)
  survivor count: 0 of 6

## CC1(C)NC(=O)NC(=O)C1Br (centres undefined)
dose: 200.0 mg/kg/injection, schedule: Q01DX Z (ip), vehicle: methylcellulose (MC)
  survivor count: 3 of 6

## NC(=O)c1cccs1
dose: 80.0 mg/kg/injection, schedule: Q01DX001 (ip), vehicle: saline
  survivor count: 1 of 4
dose: 100.0 mg/kg/injection, schedule: Q01DX001 (ip), vehicle: saline
  survivor count: 2 of 4
dose: 200.0 mg/kg/injection, schedule: Q01DX001 (ip), vehicle: saline
  survivor count: 0 of 4
[1]
  survivor count: 0 of 4

## CN1CCCCC1CCC1c2ccccc2CCc2ccccc21 (centres undefined)
dose: 50.0 mg/kg/injection, schedule: Q01DX009 (ip), vehicle: saline
  survivor count: 3 of 6
dose: 100.0 mg/kg/injection, schedule: Q01DX009 (ip), vehicle: saline
  survivor count: 0 of 6

## CC1(Cl)C(=O)NC(=O)NC1=O
dose: 100.0 mg/kg/injection, schedule: Q04DX003 (ip), vehicle: saline
  survivor count: 0 of 6

## CCCC/C=C(/C)C1(CC)C(=O)NC(=O)NC1=O
[2]
  survivor count: 0 of 6 and 1 of 6

## C=CCC1(OC(C)=O)CCN(C)CC1
dose: 150.0 mg/kg/injection, schedule: Q01DX001 (ip), vehicle: saline
  survivor count: 2 of 6
[2]
  survivor count: 0 of 6
